# Data: PubChem BioAssay AID540276 (National Center for Advancing Translational Sciences (NCATS), 2011)
# About 5,400 (1.8%) of roughly 300,000 compounds were called active. The inconclusive results got no clear call from the source; some entries with a clear call stand among them for comparison. Calls follow the shape of the full dose curve; tested in HEK293 cells. A potency beside an inconclusive call is a rough fit, not a confirmed value.
# Assay: qHTS for inhibitors of binding or entry into cells for Marburg Virus
# Conditions: Marburg virus pseudotyped entry inhibition, cell reporter; series mostly up to 37.8 µM
# Potency is read from the fitted curve at half-maximal effect.
row,Compound,Potency
1,O=C(/C=C/c1ccc(Cl)cc1)NCc1ccco1,"inconclusive: 2510 nM [activator, full curve, poor fit]"
2,COc1ccc(C2C(C#N)=C(N)OC3=C2C(=O)CC(C)(C)C3)cc1Cn1nc(C)c([N+](=O)[O-])c1C (configuration not stated),inactive
3,O=C(COC(=O)C1Cc2ccccc2CN1C(=O)c1ccccc1)Nc1ccc(SC(F)F)cc1 (configuration not stated),"inconclusive: 2510 nM [inhibitor, partial curve, poor fit]"
4,O=C(COc1cccc2ccccc12)NNC(=O)c1cnccn1,inactive
5,COc1ccc(-c2nc(SCC(=O)Nc3ccc4c(c3)OCCO4)c(-c3ccccc3)[nH]2)cc1,"inconclusive: 7940 nM [inhibitor, partial curve, poor fit]"
6,CC(=O)NC(Cc1ccccc1)C(=O)OCC(=O)c1ccccc1 (configuration not stated),"inconclusive: 5800 nM [activator, partial curve, poor fit]"
7,Cc1ccnc(NC(=O)CCC(=O)N(CC(=O)NCc2ccc(F)cc2)CC2CCCO2)c1 (configuration not stated),"inconclusive: 39800 nM [inhibitor, partial curve, poor fit]"
8,CCOC(=O)/C(=N\O)C1=NC(C)(C)Cc2ccccc21,"inconclusive: 517 nM [activator, full curve, poor fit]"
9,COc1ccccc1CNC(=O)CC1C(=O)NCCN1C1Cc2ccccc2C1 (configuration not stated),"inconclusive: 794 nM [inhibitor, full curve, poor fit]"
10,CCOc1ccc(NC(=O)C(CC(=O)O)Cc2ccc(Br)cc2)cc1 (configuration not stated),"inconclusive: 316 nM [inhibitor, partial curve, poor fit]"
11,COc1ccc(NC(=O)CSc2ccc3c4c(cccc24)C(=O)c2ccccc2-3)cc1,"inconclusive: 16400 nM [inhibitor, partial curve, poor fit]"
12,C=CCOc1ccc(/C=N/NC(=O)c2c(C)nc3ccc(Cl)cn23)cc1,inactive
13,CCC(C)n1c(/C=C/c2ccccc2)nc2ccccc21 (configuration not stated),inactive
14,COc1ccc(C(=O)C2CCN(C(=O)c3ccc(F)cc3)CC2)cc1,inactive
15,CCOC(=O)C(NC(=O)c1ccccc1Cl)(Nc1ccc(C(F)(F)F)cc1)C(F)(F)F (configuration not stated),"inconclusive: 35500 nM [inhibitor, single point]"
16,CC(C)=CCC/C(C)=C/CO/N=C1\C[C@@H](O)[C@@H](O)[C@@H]2[C@@H]3C(=O)N(C[C@@H]4CCCO4)C(=O)[C@@H]3CC[C@H]12,inactive
17,CCCN1Cc2cccc(C(=O)NCc3ccc4c(c3)OCO4)c2C1=O,"inconclusive: 501 nM [inhibitor, full curve]"

# Look-ups from the list:
# Entry for CC(=O)NC(Cc1ccccc1)C(=O)OCC(=O)c1ccccc1 (configuration not stated) under Potency: inconclusive: 5800 nM [activator, partial curve, poor fit]
# Entry for COc1ccc(C(=O)C2CCN(C(=O)c3ccc(F)cc3)CC2)cc1 under Potency: inactive
